These are yes or no findings as the source states them, for the method shown. In cells and extracts the contact can be indirect. Some results given as binding are weak or reduced against the parent protein; the word gives no strength.

Amino acid sequences for entries named in this document (tags omitted).
UniProt Q14457: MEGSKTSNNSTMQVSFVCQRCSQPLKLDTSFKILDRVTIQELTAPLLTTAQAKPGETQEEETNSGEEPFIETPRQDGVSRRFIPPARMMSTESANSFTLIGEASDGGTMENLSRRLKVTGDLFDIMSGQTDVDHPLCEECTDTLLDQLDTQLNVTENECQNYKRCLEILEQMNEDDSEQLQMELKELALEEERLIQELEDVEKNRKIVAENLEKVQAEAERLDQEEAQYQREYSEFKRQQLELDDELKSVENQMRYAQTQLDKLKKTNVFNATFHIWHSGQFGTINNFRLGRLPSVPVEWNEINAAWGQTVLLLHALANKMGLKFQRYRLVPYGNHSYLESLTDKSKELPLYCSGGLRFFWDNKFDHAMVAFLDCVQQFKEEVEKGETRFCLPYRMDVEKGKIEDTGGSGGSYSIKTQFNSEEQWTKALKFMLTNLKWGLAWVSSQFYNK
UniProt P10415: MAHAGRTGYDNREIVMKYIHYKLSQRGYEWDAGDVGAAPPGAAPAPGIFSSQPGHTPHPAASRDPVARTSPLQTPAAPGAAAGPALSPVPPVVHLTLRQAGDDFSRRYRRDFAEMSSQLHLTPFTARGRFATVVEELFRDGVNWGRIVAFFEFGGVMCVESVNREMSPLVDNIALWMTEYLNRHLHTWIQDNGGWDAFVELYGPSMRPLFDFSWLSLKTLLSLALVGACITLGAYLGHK

Our source for the binding values is publication PMC2922378.

This assay has as its target beclin-1 (human (endogenous in term placental cytotrophoblasts)) (UniProt Q14457). Kind of assay: co-IP; lysates (RIPA buffer) of cytotrophoblastic cells subjected to hypoxia-reoxygenation, treated with 50 uM vitamins C and E or vehicles; precipitated with anti-beclin-1 and protein A/G plus-agarose, 4°C overnight; immunoblotted for Bcl-2 and Bcl-xL.

Regarding Bcl-2 (from UniProt P10415 1-239), the binding result is given as “binds”.
